Test results reported in patent US7538127B2, “Medicinal compounds” (Glaxo Group Limited, priority 2003, dated 2009).
Counter-ions that a name gives are not always drawn. Some entries share one result that the patent states for a list of compounds. For at least one compound, name, drawing or mass did not settle the structure.

By UniProt entry, the sequences of proteins in these tests, tags left out.
UniProt P07550, whole entry: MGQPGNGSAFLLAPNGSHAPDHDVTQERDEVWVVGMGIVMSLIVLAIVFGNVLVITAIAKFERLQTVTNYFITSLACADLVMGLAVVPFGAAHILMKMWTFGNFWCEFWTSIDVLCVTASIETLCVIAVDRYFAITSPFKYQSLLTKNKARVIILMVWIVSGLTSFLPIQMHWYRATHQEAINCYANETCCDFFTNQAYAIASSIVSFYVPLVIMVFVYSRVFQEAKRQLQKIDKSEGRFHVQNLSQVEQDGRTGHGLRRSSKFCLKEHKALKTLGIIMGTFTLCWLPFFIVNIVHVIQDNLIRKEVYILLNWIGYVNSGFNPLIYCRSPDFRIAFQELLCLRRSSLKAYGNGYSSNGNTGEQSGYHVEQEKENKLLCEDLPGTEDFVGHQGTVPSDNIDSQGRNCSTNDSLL

Biological target: T1, human beta-2 receptor (Homo sapiens, UniProt P07550)
T1 construct: expressed in transfected cells; host or cells: Chinese hamster ovary (CHO) cells, whole cells or membranes
Assay: Agonist potency at human beta-2 receptor in CHO cells co-expressing the human receptor with a reporter gene (cAMP measurement, whole cells or membranes)
Type: cell-based
Conditions: Chinese hamster ovary cells co-expressing the human receptor with a reporter gene

SMILES | pEC50
OCc1nc(C(O)CNCCCCCCOCCOCc2c(Cl)cccc2Cl)ccc1O (stereo not shown) [Example 2, 6-{2-[(6-{2-[(2,6-Dichlorobenzyl)oxy]ethoxy}hexyl)amino]-1-hydroxyethyl}-2-(hydroxymethyl)pyridin-3-ol] | > 6
O=CO.Oc1ccc(C(O)CNCCCCCCOCCOCc2c(Cl)cccc2Cl)cc1F [Example 3, 4-{(1R)-2-[(6-{2-[(2,6-Dichlorobenzyl)oxy]ethoxy}hexyl)amino]-1-hydroxyethyl}-2-fluorophenol formate] | > 6
CS(=O)(=O)Nc1cc([C@@H](O)CNCCCCCCOCCOCc2c(Cl)cccc2Cl)ccc1O.O=CO [Example 4, N-(5-{(1R)-2-[(6-{2-[(2,6-Dichlorobenzyl)oxy]ethoxy}hexyl)amino]-1-hydroxyethyl}-2-hydroxyphenyl)methanesulfonamide formate] | > 6
O=CNc1cc([C@@H](O)CNCCCCCCOCCOCc2c(Cl)cccc2Cl)ccc1O [Example 5, 5-[(1R)-2-({6-[(2-{[(2,6-Dichlorophenyl)methyl]oxy}ethyl)oxy]hexyl}amino)-1-hydroxyethyl]-2-hydroxyphenyl}formamide formate] | > 6
